Laboratory results from PubChem BioAssay AID504444 (National Center for Advancing Translational Sciences (NCATS), 2011).
In all, about 360,000 compounds went through this assay and about 7,500 (2.1%) were called active. This list was built around the results that the source calls inconclusive (neither active nor inactive); the mix of calls is not that of the screen. Calls come from the whole dose curve; as a rule, active = well fitted inhibition curve with a large enough effect; inconclusive = small, poorly fitted or top-dose-only effect, or effect the other way; inactive = flat fitted curve, though single readings scatter. Potencies beside an inconclusive call are fits to weak or partial responses and may not hold up.

Assay: Nrf2 qHTS screen for inhibitors; note: nearly all actives have a fitted effect of over 60% in size
Details: A549 ARE-Fluc reporter, luciferase luminescence, 18-24 h; activity change, negative = inhibition: at 46 µM (top of the series)
How it was run: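 Cells were seeded and rested 2 h, then exposed to compounds for 18-24 h. CellTiter-Fluor was read first as a viability measure. BugLite was added 15 min before the final luminescent read of ARE-luciferase activity in A549 cells.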
% is set by controls: 0 for no effect and ±100 for the full control effect; potency is the fitted concentration of half-maximal effect.

| SMILES | Potency | activity change, negative = inhibition |
| --- | --- | --- |
| CC1=C(C(=O)Nc2ccc(F)cc2)C(c2cccc(C)c2)n2nc(CCCO)nc2N1 (stereo unspecified) | inconclusive: 25.9 µM [activator, single point] |  |
| Cc1cc(C)cc(NS(=O)(=O)c2ccc(-c3cc(C)no3)cc2)c1 | inconclusive: 20.6 µM [falling, single point] |  |
| CCN(CC)c1ccc(NC(=O)CN2C(=O)c3cccnc3Oc3ccccc32)c(C)c1 | inactive |  |
| O=S(=O)(c1ccc2ccccc2c1)N1CCN(c2ccc(O)cc2)CC1 | active: 10.3 µM |  |
| COc1cc2c(cc1OC)CN(C(=O)c1nn(Cc3ccccc3)c(=O)c3ccccc13)CC2 | inconclusive: 9.2 µM [falling, partial curve] |  |
| C=CCNc1ncnc2c1[nH]c1ccc(Cl)cc12 | active: 8.2 µM |  |
| CC(C)N1CCC(N2CCN(Cc3ccc4nsnc4c3)CC2CCO)CC1 (stereo unspecified) | inconclusive: 20.6 µM [activator, partial curve, poor fit] |  |
| O=C(C1CCN(c2nnc(-n3cccc3)s2)CC1)N1CCN(Cc2ccc3c(c2)OCO3)CC1 | inconclusive: 9.2 µM [falling, partial curve] |  |
| CC(C(=O)NCC(=O)Nc1ccc(F)c(F)c1F)N1CCN(c2ccc(O)cc2)CC1 (stereo unspecified) | inactive |  |
| O=C(OCc1nnc(-c2ccc([N+](=O)[O-])cc2)o1)C1CCN(C(=O)c2ccc(F)cc2)CC1 | inactive |  |
| Cc1c(C(O)CN2CCN(Cc3ccc4c(c3)OCO4)CC2)c2ccccc2n1C (stereo unspecified) | inactive |  |
| CCCCN(Cc1ccccc1)S(=O)(=O)c1ccc2c(c1)CCN2C(=O)C1CCC1 | inactive |  |
| CCOC(=O)CN(C(=O)COc1nc(-c2ccccc2)cc(C)c1C#N)c1ccccc1 | inconclusive: 16.4 µM [activator, single point] |  |
| COc1cc(C(N)=O)cc(Br)c1OCc1ccccc1 | inactive |  |
| O=C(C1=C[C@@H](c2csc3ccccc23)C[C@@H](OCc2ccc(CO)cc2)O1)N1CCN(Cc2ccccc2)CC1 | active: 16.4 µM |  |
| CCN(CC)C(=N)/C(C#N)=N/Nc1ccccc1 | inconclusive: 10.3 µM [activator, partial curve] |  |
| CCCSCCCNC(=O)C1CCCN(C(=O)c2cnn(-c3ccccc3)c2-n2cccc2)C1 (stereo unspecified) | inconclusive: 23.1 µM [activator, single point] |  |
| CC(OC(=O)/C=C/c1ccco1)C(=O)Nc1cccc([N+](=O)[O-])c1 (stereo unspecified) | inconclusive: 18.4 µM [falling, single point] |  |
| Cc1cccc(C)c1NS(=O)(=O)c1c(C)[nH]c(=O)[nH]c1=O | inactive |  |
| CSc1ccc(S(=O)(=O)Nc2ccc3c(c2)OCCO3)cc1 | inconclusive: 18.4 µM [falling, single point] |  |
| Cc1ccnc(NC(=O)C2CCN(S(=O)(=O)c3c(C)c(C)cc(C)c3C)CC2)c1 | inconclusive: 29.1 µM [falling, single point] |  |
| CCc1nn(CC(=O)N2CCCCCC2)c(=O)c2cc3ccccc3n12 | inconclusive: 4.61 µM [falling, single point] |  |

By substructure, the entries above containing an aryl methoxy group

| SMILES | Potency | activity change, negative = inhibition |
| --- | --- | --- |
| COc1cc2c(cc1OC)CN(C(=O)c1nn(Cc3ccccc3)c(=O)c3ccccc13)CC2 | inconclusive: 9.2 µM [falling, partial curve] |  |
| COc1cc(C(N)=O)cc(Br)c1OCc1ccccc1 | inactive |  |

The results go on.

| SMILES | Potency | activity change, negative = inhibition |
| --- | --- | --- |
| CCOc1ccc(S(=O)(=O)N2CCN(C(=O)c3ccc(Cl)c(S(=O)(=O)N4CCOCC4)c3)CC2)cc1 | inconclusive: 1.46 µM [falling, partial curve, poor fit] |  |
| CC(C)c1[nH]nc2c1C1(CCN(Cc3ccccc3)CC1)C(C#N)=C(N)O2 | inconclusive: 4.61 µM [falling, full curve, poor fit] |  |
| O=C(Nc1ccccc1Cc1ccccc1)c1ccc2c(c1)SC1=NS(=O)(=O)CCN12 | inconclusive: 23.1 µM [activator, partial curve, poor fit] |  |
| CCCCCCNS(=O)(=O)c1ccc(NC(=O)C2CCCO2)cc1 (stereo unspecified) | inconclusive: 29.1 µM [falling, single point] |  |
| Oc1cccc(C(O)CNCc2ccc(OCc3ccc(Cl)cc3Cl)cc2)c1 (stereo unspecified) | inactive |  |
| COc1ccc(NC(=O)C2CCN(C3=NS(=O)(=O)C(c4ccc(C)c(C)c4)=C3C)CC2)cc1OC | inconclusive: 29.1 µM [activator, single point] |  |
| CCOC(=O)c1cc(C(=O)Nc2ccc(C)c(F)c2)nn1C | inconclusive: 29.1 µM [activator, partial curve, poor fit] |  |
| Cc1nn(C)c(C)c1NS(=O)(=O)c1ccc(N2CCCC2=O)cc1 | active: 14.6 µM |  |
| O=c1oc2ccc3ccccc3c2c2c1SC(C(F)(F)F)C2 (stereo unspecified) | inconclusive: 9.2 µM [activator, partial curve, poor fit] |  |
| O=C(NNC(=O)c1ccncc1)Nc1ccc(Br)cc1 | inconclusive: 32.6 µM [activator, single point] |  |
| NS(=O)(=O)c1ccc(CCNC(=O)c2ccc([N+](=O)[O-])s2)cc1 | active: 9.2 µM |  |
| Cc1ccc(C(=O)N2c3nc(-c4ccco4)nn3C3(CCCCC3)[C@@H]3CCCC[C@@H]32)cc1 | inconclusive: 3.66 µM [falling, partial curve] |  |
| C[C@H](NC(=O)c1[nH]cnc1C(=O)Nc1ccc(CNC(=O)OC(C)(C)C)cc1)C(=O)OC(C)(C)C | inconclusive: 29.1 µM [falling, single point] |  |
| O=C1C=CC(=O)N1N(c1ccccc1)c1ccccc1 | inconclusive: 29.1 µM [falling, single point] |  |
| Cc1cc(NC(=O)CN2C(=O)NC(C)(c3ccc(Cl)cc3Cl)C2=O)no1 (stereo unspecified) | inconclusive: 18.4 µM [activator, partial curve, poor fit] |  |
| CC(/C=N/NC(=O)c1ccccc1F)=C\c1ccccc1 | inconclusive: 2.59 µM [activator, full curve] |  |
| Cc1cc(Nc2ccc(C)c(Cl)c2)n2nc(-c3ccccc3)nc2n1 | inactive |  |
| Cc1ccc(C(=O)Nc2ccc(NC(=O)c3ccco3)c(C)c2)cc1 | inconclusive: 32.6 µM [falling, single point] |  |
| COc1ccc(-c2nc3ccccn3c2Cl)cc1 | inconclusive: 2.31 µM [activator, partial curve] |  |
| C[C@@H]1CN([C@H](C)CO)C(=O)c2cc(NC(=O)C3CCCCC3)ccc2O[C@@H]1CN(C)Cc1ccc(C(F)(F)F)cc1 | inconclusive: 18.4 µM [falling, single point] |  |
| O=C(CSc1ccsc1[N+](=O)[O-])NCc1ccccc1 | inconclusive: 8.2 µM [activator, partial curve] |  |
| COc1ccc(C2=NN(C(=O)CSc3nc(=O)n4ccc(C)cc4n3)C(c3ccc(C)cc3)C2)cc1 (stereo unspecified) | inconclusive: 20.6 µM [falling, single point] |  |

A different layout for part of the listing above.
SMILES	Potency	activity change, negative = inhibition
CC1=C(C(=O)Nc2ccc(F)cc2)C(c2cccc(C)c2)n2nc(CCCO)nc2N1 (stereo unspecified)	inconclusive: 25.9 µM [activator, single point]	
O=S(=O)(c1ccc2ccccc2c1)N1CCN(c2ccc(O)cc2)CC1	active: 10.3 µM	

Remaining list, next part

| SMILES | Potency | activity change, negative = inhibition |
| --- | --- | --- |
| COc1ccc(C(=O)NCCc2cc3ccc(C)c(C)c3[nH]c2=O)cc1OC | inconclusive: 23.1 µM [falling, partial curve] |  |
| CC(C)(C)c1ccc(/C=C/C(=O)NCCCN2CCOCC2)cc1 | inconclusive: 18.4 µM [falling, partial curve, poor fit] |  |
| COC(=O)CSc1ccccc1C(=O)OC | inactive |  |
| CC(=O)c1cnc(-c2ccccc2)s1 | inconclusive: 14.6 µM [activator, partial curve] |  |
| COc1ccc(-c2ccnc3c2c(=O)n(C)c(=O)n3C)cc1OC | inactive |  |
| CC(C)(CNC(=O)c1cc([N+](=O)[O-])ccc1N1CCC(Cc2ccccc2)CC1)N1CCOCC1 | inconclusive: 20.6 µM [falling, partial curve, poor fit] |  |
| CN(c1ccc(C(=O)N2CCCCCC2)cc1)S(=O)(=O)c1ccccc1 | inconclusive: 16.4 µM [falling, single point] |  |
| Cc1ccc(C(=O)NCCn2c(N)c(C#N)c3nc4ccccc4nc32)cc1 | inactive |  |
| COc1ccc2[nH]c(C(=O)NCCN3CCCCC3)cc2c1 | inactive |  |
| Cc1onc(-c2ccccc2)c1C(=O)N/N=C/c1cc(Br)c(O)c(Br)c1 | inconclusive: 20.6 µM [falling, single point] |  |
| CCOc1ccc(-c2cc(C)n3nc(C(=O)Nc4cc(Cl)ccc4O)cc3n2)cc1 | inactive |  |
| S=C(NCC1CCCO1)NC12CC3CC(CC(C3)C1)C2 (stereo unspecified) | inconclusive: 4.61 µM [activator, partial curve, poor fit] |  |
| CC(C)CN1CCC(=O)N(CCSc2ccccc2)CC1 | inconclusive: 0.82 µM [activator, full curve] |  |
| COc1cccc(NC(=O)Cn2c(=O)n(Cc3nc(-c4ccccc4)no3)c(=O)c3ccccc32)c1 | inconclusive: 0.461 µM [falling, partial curve, poor fit] |  |
| Cc1sc(NC(=O)c2ccc(OCC(C)C)cc2)c(C(N)=O)c1-c1ccc(Cl)cc1Cl | active: 18.4 µM |  |
| O=C(CCCCCCN1C(=O)c2ccccc2C1=O)N1CCC(c2ccccc2)C1 (stereo unspecified) | inconclusive: 29.1 µM [falling, single point] |  |
| Cc1ccc(NC(=O)CSc2ncccc2C(=O)Oc2cccc([N+](=O)[O-])c2)cc1Cl | inconclusive: 8.2 µM [activator, partial curve] |  |
| COc1ccc(-c2ccc3c(c2)C2CC3CCN2)cc1 (stereo unspecified) | inconclusive: 18.4 µM [activator, single point] |  |
| COc1ccc(/C=N\NC(=O)C2C(=O)NCC2c2ccccc2)cc1O (stereo unspecified) | inconclusive: 0.164 µM [activator, full curve, poor fit] |  |
| O=C(Nc1nnc(C2=COCCO2)o1)c1cccc(F)c1 | inconclusive: 16.4 µM [falling, partial curve] |  |
| O=C(OCC(=O)N1CCCC1=O)c1cccc(S(=O)(=O)N2CCOCC2)c1 | inconclusive: 6.51 µM [activator, single point] |  |
| O=C(CN1C(=O)/C(=C/c2ccco2)SC1=S)Nc1ccc(O)c(C(=O)O)c1 |  | inconclusive: 58.9% [activator] |
